Data as given in PMC10163288.
The other results are listed elsewhere or left out.

B1: il2ra_site2_2erj_sap_21_mot_HHH_b2_01204_af2_000000056_0001_19_34_H_._HHH_b1_04067_0001_0000300007_0000001_1_0001_af2pred_0001_1_af2pred_swapped (protein)
chain: SSSSDELEQVVEELVEELGLDEEAKKILEAAVRNLKESGYNRELAEKWLEHAARNLARARSSSSS
B2: il2ra_site1_3nfp_sap_15_mot_HHH_b1_08274_000000052_0001_43_57_H_._HHH_b2_03144_0001_0000600064_0000001_1_0001 (protein)
chain: SSSSDATEEFVERMVKWFGLDEEAKEILEEVVEELKERGVDWKEAAHILIEAAAKLQNNKSSSSS
B3: il2ra_site1_2b5i_sap_13_mot_HHH_b1_06833_000000178_0001_1_19_H_._HHH_b2_05097_af2_0001_0000100003_0000001_0_0001_af2pred_dldesign_0_af2pred (protein)
chain: SSSSDEAWDRVYDLFQEALRLRRAGKKEEARELLEEALRVAKEGKEEKALAEVEYLLSHLKSSSS
B4: il2ra_site1_3nfp_normal_mot_d9cc8bee132a485d0ac603caa35b40b0_0001_000000230_0001_14_29_H_._09c2afe89fb4cbada1505b3a46965288_0001_af2_0001_0000300018_0000001_1 (protein)
chain: GPRRLMLELALRLGDPKEALRILLEILEEELGDPEEARELLREVIERAARVPPERAEQALEEAEK
B5: il2ra_site2_2erj_sap_14_mot_HHH_b2_03387_af2_000000185_0001_39_52_H_._HHH_b1_04906_af2_0001_0000200008_0000001_0_0001 (protein)
chain: SSSSSRELFETLVRLMQAAAEGDEELFEKLFEEAQRLAEELGSDNAKEAIEQLKRLIEELLSSSS
B6: il2ra_site1_1z92_normal_mot_2f6a785869a907c78cd0d4dd46df121f_0001_000000063_0001_1_13_H_._HEEHE_0610_0001_0000200027_0000001_0_af2pred_0001_af2pred (protein)
chain: DHEERIEEQIERFAELAGVPSVSVEVSNNKITVTVEGDDSAARALRRFVEVAAKDLELEVEVTIN
B7: il2ra_site2_3nfp_normal_mot_HHH_b1_05785_af2_000000002_0001_41_57_H_._HHH_b2_01690_af2_0001_0000800021_0000001_0 (protein)
chain: SSSSNEAEEYLRAALLLLELALEEGNEELFRRHAELIRLLAESLEDEEVEKRVEELQEEFDSSSS
B8: il2ra_site1_1z92_normal_mot_HHH_b2_04375_000000267_0001_42_56_H_._92259d4fafaaaac0c6a0b9836689a3e9_0001_0001_0000200032_0000001_0_af2pred_0001_af2pred_1_swapped (protein)
chain: SEAIRRDIEKAEENGLPPRKVVRAVLRALELFLGDPEEAKRLLEEVLEKLLGDPEEARELVERAE
B9: il2ra_site2_3nfp_sap_18_mot_HHH_b1_07556_000000077_0001_42_55_H_._HHH_b2_07201_0001_0000400029_0000001_0_0001 (protein)
chain: SSSSDEEEEVKRSLEYLKAVAKLHNDEELQEVIEEAERILEEDNDPEKAAEALSEIALKLASSSS
B10: il2ra_site2_2erj_normal_mot_HHH_b1_04810_000000187_0001_1_15_H_._HHH_b2_06197_0001_0000600033_0000001_0 (protein)
chain: SSSSSDAEELVRLLWEALEAHLNGDEERLEELLEELEELAKEVPDEAVAELAEFFLRAARSSSSS
B11: il2ra_site1_1z92_sap_12_mot_HHH_b1_07323_af2_000000200_0001_41_57_H_._HHH_b2_07083_0001_0000300019_0000001_0_0001_af2pred_0001_af2pred (protein)
chain: NLNEEDLEEAVRKNDEELLRKFIELLLKDAGDPHRVKLLLKVLVRRLGLPPEVLERLEELLEELT
B12: il2ra_site1_3nfp_normal_mot_HHH_b1_05720_af2_000000239_0001_1_19_H_._HHH_b2_04752_0001_0000700034_0000001_0 (protein)
chain: SSSSSDVEERVEELLEQAEELNKEGDFKRALEAIEEVFRLIARLGNPELVRLLKEFLQKVSSSSS
B13: il2ra_site2_2erj_sap_15_mot_HHH_b2_03387_af2_000000185_0001_39_52_H_._HHH_b2_00372_0001_0000100005_0000001_0_0001_af2pred_0001_1_af2pred_swapped (protein)
chain: SSSSSEEIEKAVREEAEEAYERGDERLLKALLRLLRRFAERLNDPELEELLKFIEELLEELSSSS
B14: il2ra_site2_2erj_sap_24_mot_35d2dc24e2c4431f89e6f806b163ecf8_0001_af2_000000103_0001_35_49_H_._HHH_b2_07470_0001_0000100003_0000001_0_0001 (protein)
chain: SSSSSEEREELQELAVRLAELAARGNPEEARKVLEEAEKLAKELNDETFERYLRLAKKHLSSSSS
B15: il2ra_site2_2erj_normal_mot_8dc8e935950a1f8e5bdf62a2e89caa87_0001_af2_000000008_0001_1_13_H_._HHH_b1_07843_af2_0001_0000300006_0000001_0_af2pred_0001_1_af2pred_ … (protein)
chain: SSSSDEYEERIEELIREAEEALERGNPEEARHIIAEAIELALENNDDELLKELSELLRRIRSSSS
B16: il2ra_site2_3nfp_normal_mot_HHH_b1_05627_af2_000000038_0001_43_56_H_._HHH_b2_07136_0001_0000900027_0000001_0 (protein)
chain: SSSSDKRERYVEAAIEALRLAIEHNDPETLRSIFEAAEALAEDLGNEELLEEIRELYEEATSSSS
B17: il2ra_site2_2erj_sap_22_mot_HHH_b1_02841_000000003_0001_43_57_H_._HHH_b2_06425_0001_0000300014_0000001_0_0001 (protein)
chain: SSSSDLHRLYELAVRALALLANGNPEEAEEVLREAEELAEKLNSDNAKEHLEILRKRVENSSSSS
B18: il2ra_site1_2b5i_sap_19_mot_HHH_b2_04997_af2_000000138_0001_1_34_H_._HHH_b2_00677_0001_0000300015_0000001_0_0001 (protein)
chain: SSSSDREVDRRLVRFIFRLIWEFNLSAEESRKLSHIAVELMDEGVSEEEIEEILEEVAKESSSSS
B19: il2ra_site2_3nfp_sap_23_mot_HHH_b2_06150_000000217_0001_39_53_H_._HHH_b2_06303_0001_0000300030_0000001_0_0001 (protein)
chain: SSSSSEAEEYLRAALKLLELAIEEGDRFAFESTLRLVELAAKSNNDEEVEERVEELKERFKSSSS
B20: il2ra_site1_3nfp_normal_mot_HHH_b2_02477_af2_000000290_0001_1_16_H_._HHH_b2_04998_af2_0001_0000100002_0000001_0_af2pred_0001_af2pred (protein)
chain: SSSSSSREELEKLIEQANELYENGNPEEAKEVLEKALELAEELNSRAAARFIKAMLRTASSSSSS
B21: il2ra_site1_3nfp_normal_mot_HHH_b1_02435_af2_000000203_0001_40_57_H_._HHH_b1_02974_af2_0001_0000200008_0000001_0_af2pred_0001_1_af2pred_swapped (protein)
chain: SSSSEEEIRRALEEALELAFQGNFEEAEKVLREAEEIAKEINDEQKLKRIQFDLRSLELAKSSSS
B22: il2ra_site1_3nfp_sap_14_mot_HHH_b2_05809_000000010_0001_1_20_H_._HHH_b1_03964_af2_0001_0000100001_0000001_0_0001_af2pred_0001_af2pred (protein)
chain: SSSSDKRRRALELTREIKRLSREGDEEEARRLLEELEELARELGDPVLKILVKRLKEHIDSSSSS
B23: il2ra_site2_2erj_normal_mot_HHH_b1_05219_af2_000000227_0001_20_36_H_._76ac4eab7cc9a0b615a4d3e84633f487_0001_af2_0001_0000700039_0000001_0 (protein)
chain: DEELHVLFAAASALNDPELQRKVLELAEAFSNGEVPPEEVERIARELVRELGNEERLERIEKLAR
B24: il2ra_site1_3nfp_normal_mot_ems_3hC_775_af2_000000149_0001_42_60_H_._HEEHE_1486_af2_0001_0000300018_0000001_0 (protein)
chain: DTEESVEEAARLIAELAGVPSWEVEVHNGEVHVHLEGTDSQARHAARLIEFAARKFGVPVHVEVE

Biological target: il2ra, P01589
Assay: yeast display titration

Apparent Kd, inactive:
B1 no binding seen
B2 no binding seen
B3 no binding seen
B4 no binding seen
B5 no binding seen
B6 no binding seen
B7 no binding seen
B8 no binding seen
B9 no binding seen
B10 no binding seen
B11 no binding seen
B12 no binding seen
B13 no binding seen
B14 no binding seen
B15 no binding seen
B16 no binding seen
B17 no binding seen
B18 no binding seen
B19 no binding seen
B20 no binding seen
B21 > 1400 nM
B22 no binding seen
B23 no binding seen
B24 no binding seen

2 entries picked at random from those above:
Apparent Kd, inactive:
B12 no binding seen
B4 no binding seen
